Here are results for one substance from PMC1543650.

By UniProt entry, the sequences of proteins in these tests, tags left out. Residues count along the entry.
UniProt Q9NNX6, residues 59-404: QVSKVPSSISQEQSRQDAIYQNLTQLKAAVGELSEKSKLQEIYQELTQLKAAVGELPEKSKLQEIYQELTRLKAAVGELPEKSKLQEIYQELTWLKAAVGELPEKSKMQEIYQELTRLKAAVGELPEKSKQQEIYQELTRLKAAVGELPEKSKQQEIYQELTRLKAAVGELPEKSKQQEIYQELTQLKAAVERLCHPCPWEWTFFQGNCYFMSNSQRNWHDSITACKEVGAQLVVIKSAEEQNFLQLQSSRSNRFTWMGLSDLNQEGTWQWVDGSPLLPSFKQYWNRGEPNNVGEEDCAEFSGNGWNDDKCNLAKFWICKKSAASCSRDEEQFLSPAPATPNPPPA

Results are given in words; binding and its absence hold for the method and conditions named. Some entries that bind do so weakly or less than the wild type.

The assay deals with monomeric full-length gp120 WT of HIV-1 JR-CSF, without Fc tag (HIV-1 JR-CSF) (UniProt P20871). As to the kind of experiment: ELISA; both purified.

For “Fc-DC-SIGN (entire ectodomain of DC-SIGN fused in-frame with the Fc region of IgG1) (from UniProt Q9NNX6 59-404) (Fc fusion)”, the binding result was “binds”.
